Assay results: ChEMBL document CHEMBL2375244 (J Med Chem, 2013)

Legend:
Type in all cases: functional, cell-based
A673 = test: Cytotoxicity against human A673 cells after 72 hrs by resazurin/resorufin-based fluorescence assay; details: A673, 72 h
SK-ES1 = test: Cytotoxicity against human SK-ES-1 cells after 72 hrs by resazurin/resorufin-based fluorescence assay; details: SK-ES1, 72 h
Summary of the method: (§1)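 CellTiter-Blue viability: 1200 cells per well seeded, incubated overnight at 37 °C, 5% CO₂; drugs serially diluted 2:3 in medium, four replicate wells per concentration plus four diluent-only control wells; 72 h exposure; resazurin reduction to resorufin read by fluorescence (579 nm ex/584 nm em). IC50 is the average of three data sets, each using nine concentrations between 0.004 μM and 12.5 μM.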

[1] = Cytotoxicity against human NCI-H929 cells after 72 hrs by resazurin/resorufin-based fluorescence assay; details: NCI-H929, 72 h; summary of the method: as §1

Measured: IC50

CCc1cnn2c(NCc3ccc[n+]([O-])c3)cc(N3CCCC[C@H]3CCO)nc12 [DINACICLIB]
< 5 nM: all assays above
